This continues a long series; more values of the same kind are listed elsewhere.
Test system: library of 8,380 IKZF3 degrons (ZF-eGFP/mCherry reporter) in Jurkat cells
Test: Pooled library screen (FACS, NGS, limma voom LogFC of positive vs negative read counts)
Format: cell-based, human
Experimental: A library of 8,380 IKZF3 degrons was cloned into pLVX-Sprout to create the eGFP/mCherry protein degradation reporter plasmid pool. A lentivirus pool was then generated using the Lenti-X lentiviral vector production method.
Jurkat cells were transduced at a multiplicity of infection of <0.3 with the lentivirus vector library in order to maximise the number of cells with a single integration. Transductions were carried out in 6 well TC-treated cell culture dishes (Falcon) with 3×10^6 cells per well. Cells were incubated for 2 days at 37° C. and 5% CO2 before the supernatant was removed and replaced with fresh media. 6 days post-transduction, mCherry+ cells were isolated via FACS using the FACS Aria Fusion (BD) in a buffer containing PBS (Gibco), 2 mM EDTA (Gibco), 25 mM HEPES (Sigma) and 1% BSA (Sigma). 8 days later, cells were treated with DMSO or a thalidomide analog for 18 hours at 37° C. and 5% CO2. mCherry+GFPlow and NOT(mCherry+GFPlow) cells were sorted by FACS using the FACS Aria Fusion (BD). DMSO treated cells were used to set the mCherry+GFPlow gate and dead cells were excluded from sorting by staining cells with 1 μg/mL DAPI (ThermoFisher). gDNA was isolated using the Maxwell RSC 48 (Promega). gDNA from cells that were unsorted and untreated were also isolated to determine the library representation on the day of compound treatment. Throughout the screen >600× coverage of the library was maintained. 3 biological replicates were carried out with a new transduction taking place each time.
A two-step PCR was used where the first PCR (PCR1) amplified the integrated degron sequence from gDNA and the second PCR (PCR2) added Illumina adaptors and barcodes to permit multiplexing. See Supp F for PCR1 and PCR2 primers. Q5 Hot Start High-Fidelity 2× Master Mix (New England Biolabs) was used for both PCRs. Sufficient gDNA was amplified in PCR1 in order to maintain >600× coverage and amplicons were purified using solid phase reversible immobilization (SPRI) beads (Beckman Coulter). Purified PCR1 products were analysed on the Tapestation 4200 (Agilent) to confirm purity prior to proceeding to PCR2. Sufficient PCR1 product was amplified in PCR2 in order to maintain >600× coverage and amplicons were run on a 2% agarose TAE gel. Target bands were excised and purified using the NucleoSpin Gel and PCR Clean-up Kit (Machery Nagel). Amplicons were analysed on the Tapestation 4200 and quantified using Qubit dsDNA HS kit (ThermoFisher). PCR products were pooled and sequenced as paired-reads on the NovaSeq (Illumina) using a SP2 200 cycles kit (Illumina).
Count distributions, percentage of read mapping, library coverage and replicate correlation per sample were assessed for QC purposes.
To carry out the library screen, we used the same plasmid construct as in our earlier flow cytometry assays, but pooling all 8,380 mutants together into one Jurkat population, ensuring a copy number of one plasmid per cell (FIG. 4B). […] These GFP-negative cells were then separated from the remaining GFP-positive population using fluorescence activated cell sorting (FACS). These two populations were then sequenced and the relative abundance of every mutant in both populations compared to provide a log FC value for each mutant sequence. This value indicated how frequently a sequence is observed in the GFP-negative population relative to the GFP-positive population, and therefore how effective a degron it is for that particular IMID compound.

O=C1CCC(N2C(=O)c3ccccc3C2=O)C(=O)N1 (centres unmarked) [A32, 2-(2,6-dioxopiperidin-3-yl)isoindoline-1,3-dione]
A32_logFC (Degron-ID 3113, SEQ ID NO 47, 46F_47Q_49P_50V_52G_53A_54Q_55F_67L): 3.59
A32_logFC (Degron-ID 3114, SEQ ID NO 38, 46F_47Q_49P_50V_52G_53A_54R_55F_67L): 3.633
A32_logFC (Degron-ID 3115, SEQ ID NO 45, 46F_47Q_49P_50V_52G_53A_54S_55F_67L): 3.602
A32_logFC (Degron-ID 3117, SEQ ID NO 17, 46F_47Q_49P_50V_52G_53A_54V_55F_67L): 3.746
A32_logFC (Degron-ID 3232, SEQ ID NO 40, 46F_47R_49E_50V_52G_53A_54P_55F_67L): 3.617
A32_logFC (Degron-ID 3672, SEQ ID NO 170, 46F_47T_49E_50I_52G_53A_54P_55F_67L): 3.17
A32_logFC (Degron-ID 3674, SEQ ID NO 147, 46F_47T_49E_50I_52G_53A_54R_55F_67L): 3.233
A32_logFC (Degron-ID 3715, SEQ ID NO 187, 46F_47T_49E_50V_52G_53A_54S_55F_67L): 3.121
A32_logFC (Degron-ID 3792, SEQ ID NO 140, 46F_47T_49P_50I_52G_53A_54P_55F_67L): 3.253
A32_logFC (Degron-ID 3795, SEQ ID NO 149, 46F_47T_49P_50I_52G_53A_54S_55F_67L): 3.228
A32_logFC (Degron-ID 3900, SEQ ID NO 180, 46F_47V_49E_50I_52G_53A_54A_55F_67L): 3.155
A32_logFC (Degron-ID 3905, SEQ ID NO 151, 46F_47V_49E_50I_52G_53A_54G_55F_67L): 3.227
A32_logFC (Degron-ID 3912, SEQ ID NO 33, 46F_47V_49E_50I_52G_53A_54P_55F_67L): 3.651
A32_logFC (Degron-ID 3913, SEQ ID NO 152, 46F_47V_49E_50I_52G_53A_54Q_55F_67L): 3.224
A32_logFC (Degron-ID 4072, SEQ ID NO 162, 46F_47V_49P_50V_52G_53A_54P_55F_67L): 3.195
A32_logFC (Degron-ID 6327, SEQ ID NO 166, 46F_47Q_49P_50I_52G_53R_54I_55F_67L): 3.177
A32_logFC (Degron-ID 6495, SEQ ID NO 189, 46L_47C_49P_50I_52G_53F_54S_55C_67L): 3.115
A32_logFC (Degron-ID 6499, SEQ ID NO 144, 46L_47C_49P_50I_52G_53F_54Y_55C_67L): 3.24
A32_logFC (Degron-ID 6520, SEQ ID NO 171, 46L_47E_49P_50I_52G_53F_54A_55C_67L): 3.17
A32_logFC (Degron-ID 6533, SEQ ID NO 178, 46L_47E_49P_50I_52G_53F_54Q_55C_67L): 3.157
A32_logFC (Degron-ID 6534, SEQ ID NO 39, 46L_47E_49P_50I_52G_53F_54R_55C_67L): 3.621
A32_logFC (Degron-ID 6535, SEQ ID NO 42, 46L_47E_49P_50I_52G_53F_54S_55C_67L): 3.615
A32_logFC (Degron-ID 6615, SEQ ID NO 163, 46L_47I_49P_50I_52G_53F_54S_55C_67L): 3.185
A32_logFC (Degron-ID 6701, SEQ ID NO 44, 46L_47Q_49P_50I_52G_53F_54C_55C_67L): 3.606
A32_logFC (Degron-ID 6704, SEQ ID NO 183, 46L_47Q_49P_50I_52G_53F_54F_55C_67L): 3.135
A32_logFC (Degron-ID 6705, SEQ ID NO 148, 46L_47Q_49P_50I_52G_53F_54G_55C_67L): 3.23
A32_logFC (Degron-ID 6709, SEQ ID NO 150, 46L_47Q_49P_50I_52G_53F_54L_55C_67L): 3.228
A32_logFC (Degron-ID 6712, SEQ ID NO 188, 46L_47Q_49P_50I_52G_53F_54P_55C_67L): 3.119
A32_logFC (Degron-ID 6716, SEQ ID NO 31, 46L_47Q_49P_50I_52G_53F_54T_55C_67L): 3.661
A32_logFC (Degron-ID 6717, SEQ ID NO 15, 46L_47Q_49P_50I_52G_53F_54V_55C_67L): 3.757
A32_logFC (Degron-ID 6779, SEQ ID NO 145, 46L_47T_49P_50I_52G_53F_54Y_55C_67L): 3.236
A32_logFC (Degron-ID 6785, SEQ ID NO 165, 46L_47V_49P_50I_52G_53F_54G_55C_67L): 3.183
A32_logFC (Degron-ID 6793, SEQ ID NO 195, 46L_47V_49P_50I_52G_53F_54Q_55C_67L): 3.089
A32_logFC (Degron-ID 6794, SEQ ID NO 160, 46L_47V_49P_50I_52G_53F_54R_55C_67L): 3.202
A32_logFC (Degron-ID 6796, SEQ ID NO 154, 46L_47V_49P_50I_52G_53F_54T_55C_67L): 3.215
A32_logFC (Degron-ID 7674, SEQ ID NO 181, 46L_47E_49E_50I_52G_53F_54R_55C_67L): 3.152
A32_logFC (Degron-ID 7755, SEQ ID NO 143, 46L_47I_49E_50I_52G_53F_54S_55C_67L): 3.243
A32_logFC (Degron-ID 7756, SEQ ID NO 184, 46L_47I_49E_50I_52G_53F_54T_55C_67L): 3.132
A32_logFC (Degron-ID 7841, SEQ ID NO 186, 46L_47Q_49E_50I_52G_53F_54C_55C_67L): 3.127
A32_logFC (Degron-ID 7847, SEQ ID NO 155, 46L_47Q_49E_50I_52G_53F_54I_55C_67L): 3.214
A32_logFC (Degron-ID 7850, SEQ ID NO 169, 46L_47Q_49E_50I_52G_53F_54M_55C_67L): 3.171
A32_logFC (Degron-ID 7856, SEQ ID NO 35, 46L_47Q_49E_50I_52G_53F_54T_55C_67L): 3.649
A32_logFC (Degron-ID 7915, SEQ ID NO 161, 46L_47T_49E_50I_52G_53F_54S_55C_67L): 3.196
A32_logFC (Degron-ID 7916, SEQ ID NO 182, 46L_47T_49E_50I_52G_53F_54T_55C_67L): 3.136
A32_logFC (Degron-ID 7920, SEQ ID NO 194, 46L_47V_49E_50I_52G_53F_54A_55C_67L): 3.091
A32_logFC (Degron-ID 7933, SEQ ID NO 185, 46L_47V_49E_50I_52G_53F_54Q_55C_67L): 3.132
A32_logFC (Degron-ID 7936, SEQ ID NO 159, 46L_47V_49E_50I_52G_53F_54T_55C_67L): 3.205

Source: US20260284208A1, “SYSTEM” (Oxford University Innovation Limited, priority 2023, published 2026)
